Experimental data published in US20090118161A1 (BAYLOR COLLEGE OF MEDICINE, published 2009).
These are yes or no findings as the source states them, for the method shown. Some binding calls cover weakened binding; strength is not graded here.

Chains of the proteins cited; added tags and fusions are not shown. Lines headed by an entry give the natural chain unless they say otherwise; changes in a name come on top.
UniProt P02671: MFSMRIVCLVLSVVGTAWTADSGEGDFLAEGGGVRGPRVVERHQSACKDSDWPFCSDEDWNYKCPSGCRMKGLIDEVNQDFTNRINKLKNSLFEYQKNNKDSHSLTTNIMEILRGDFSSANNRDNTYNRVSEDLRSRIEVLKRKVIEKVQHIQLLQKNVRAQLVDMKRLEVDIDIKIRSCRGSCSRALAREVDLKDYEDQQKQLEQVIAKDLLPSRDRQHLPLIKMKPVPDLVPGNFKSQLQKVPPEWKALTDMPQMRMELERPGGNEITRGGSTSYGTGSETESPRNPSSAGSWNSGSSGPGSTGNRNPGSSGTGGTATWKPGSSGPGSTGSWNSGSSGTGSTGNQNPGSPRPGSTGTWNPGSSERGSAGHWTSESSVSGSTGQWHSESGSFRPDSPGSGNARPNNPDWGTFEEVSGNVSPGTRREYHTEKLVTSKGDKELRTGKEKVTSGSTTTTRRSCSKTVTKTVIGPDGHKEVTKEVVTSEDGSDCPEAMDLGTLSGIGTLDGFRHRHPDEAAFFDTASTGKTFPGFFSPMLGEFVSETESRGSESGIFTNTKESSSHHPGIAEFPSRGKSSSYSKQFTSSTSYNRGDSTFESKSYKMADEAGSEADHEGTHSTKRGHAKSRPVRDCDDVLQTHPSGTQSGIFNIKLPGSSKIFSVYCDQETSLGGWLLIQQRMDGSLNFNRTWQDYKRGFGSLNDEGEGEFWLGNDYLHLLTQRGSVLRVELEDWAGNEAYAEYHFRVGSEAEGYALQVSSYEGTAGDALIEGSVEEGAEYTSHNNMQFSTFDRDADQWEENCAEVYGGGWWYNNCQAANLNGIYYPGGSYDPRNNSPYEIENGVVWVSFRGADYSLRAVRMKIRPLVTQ
UniProt P02675: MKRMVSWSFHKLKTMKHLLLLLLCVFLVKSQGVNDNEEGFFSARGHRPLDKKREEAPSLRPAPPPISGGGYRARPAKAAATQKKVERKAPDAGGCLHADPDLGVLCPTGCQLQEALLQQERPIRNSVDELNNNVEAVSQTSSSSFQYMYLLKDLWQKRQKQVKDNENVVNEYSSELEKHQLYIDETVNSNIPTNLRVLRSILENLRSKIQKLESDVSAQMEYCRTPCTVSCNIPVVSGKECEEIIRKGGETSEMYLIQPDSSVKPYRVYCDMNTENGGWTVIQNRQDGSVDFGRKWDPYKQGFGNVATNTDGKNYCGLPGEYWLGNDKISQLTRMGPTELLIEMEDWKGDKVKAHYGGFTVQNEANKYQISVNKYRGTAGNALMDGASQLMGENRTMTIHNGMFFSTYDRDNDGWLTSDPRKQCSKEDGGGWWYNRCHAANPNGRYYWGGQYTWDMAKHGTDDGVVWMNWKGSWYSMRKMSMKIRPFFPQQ
UniProt P02679: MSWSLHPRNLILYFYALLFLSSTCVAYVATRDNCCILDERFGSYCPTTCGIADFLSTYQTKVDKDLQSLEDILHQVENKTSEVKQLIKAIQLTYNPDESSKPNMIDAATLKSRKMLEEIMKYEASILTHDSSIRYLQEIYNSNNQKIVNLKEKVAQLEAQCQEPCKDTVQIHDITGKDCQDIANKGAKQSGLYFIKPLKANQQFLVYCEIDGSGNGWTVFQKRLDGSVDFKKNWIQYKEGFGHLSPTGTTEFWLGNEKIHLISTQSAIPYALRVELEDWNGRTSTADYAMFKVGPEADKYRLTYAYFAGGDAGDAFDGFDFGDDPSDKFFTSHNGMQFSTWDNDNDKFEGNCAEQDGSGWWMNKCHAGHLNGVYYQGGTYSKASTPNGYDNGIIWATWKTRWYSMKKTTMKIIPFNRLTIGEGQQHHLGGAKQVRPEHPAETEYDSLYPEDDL

Molecular target: Fragment D of fibrinogen (human) (UniProt P02671+P02675+P02679)
Experiment: ELISA on immobilized fragment D

- binding: binds
B1: recombinant VWF-A2 domain polypeptide (amino acids G1481-R1668) (other)
chain: GLLGVSTLGPKRNSMVLDVAFVLEGSDKIGEADFNRSKEFMEEVIQRMDVGQDSIHVTVLQYSYMVTVEYPFSEAQSKGDILQRVREIRYQGGNRTNTGLALRYLSDHSFLVSQGDREQAPNLVYMVTGNPASDEIKRLPGDIQVVPIGVGPNANVQELERIGWPNAPILIQDFETLPREAPDLVLQR
notes: Expressed in E. coli as a fusion protein with a His tag at the N terminus; monomeric on SDS-PAGE; also called A2 protein; VWF-A2 protein; not shown: N-terminal His tag from the vector
